The record followed here is article doi:10.1101/2022.04.11.487887 (bioRxiv, 2022).

Protein sequences, listed by entry. Tags and fused reporters are not part of them.
UniProt P35567: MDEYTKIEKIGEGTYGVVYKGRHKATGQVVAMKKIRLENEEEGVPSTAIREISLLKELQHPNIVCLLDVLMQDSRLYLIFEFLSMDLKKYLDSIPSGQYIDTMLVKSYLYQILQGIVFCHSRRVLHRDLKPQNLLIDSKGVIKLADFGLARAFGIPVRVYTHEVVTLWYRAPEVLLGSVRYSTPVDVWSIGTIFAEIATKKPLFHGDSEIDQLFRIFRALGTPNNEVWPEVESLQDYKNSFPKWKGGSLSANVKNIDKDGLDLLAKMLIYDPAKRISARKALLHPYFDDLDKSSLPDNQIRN
UniProt P24033: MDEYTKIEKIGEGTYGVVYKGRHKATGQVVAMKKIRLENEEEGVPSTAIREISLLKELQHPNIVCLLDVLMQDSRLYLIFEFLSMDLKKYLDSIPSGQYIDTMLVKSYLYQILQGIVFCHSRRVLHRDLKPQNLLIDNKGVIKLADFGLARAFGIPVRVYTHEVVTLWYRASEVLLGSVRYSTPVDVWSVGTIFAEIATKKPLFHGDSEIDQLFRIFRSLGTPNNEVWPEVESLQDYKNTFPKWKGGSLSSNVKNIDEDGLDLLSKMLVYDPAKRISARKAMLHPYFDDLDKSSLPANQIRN
UniProt Q9DG02: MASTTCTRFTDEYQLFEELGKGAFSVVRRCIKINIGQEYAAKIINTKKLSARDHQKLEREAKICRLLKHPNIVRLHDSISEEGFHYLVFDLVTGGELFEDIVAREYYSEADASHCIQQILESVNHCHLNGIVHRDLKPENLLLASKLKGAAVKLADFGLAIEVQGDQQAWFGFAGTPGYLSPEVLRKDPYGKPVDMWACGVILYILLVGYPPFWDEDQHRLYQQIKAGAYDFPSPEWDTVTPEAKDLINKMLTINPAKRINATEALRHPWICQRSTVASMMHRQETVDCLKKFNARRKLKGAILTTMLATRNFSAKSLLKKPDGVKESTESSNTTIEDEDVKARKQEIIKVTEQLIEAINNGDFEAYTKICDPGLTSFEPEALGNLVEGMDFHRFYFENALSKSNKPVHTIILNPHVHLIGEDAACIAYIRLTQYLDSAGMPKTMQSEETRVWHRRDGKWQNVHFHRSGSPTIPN

Experiment [1] concerns the target T1, Strep-His-TEV-HaloTag-3C-Xenopus γTuNA (Xenopus laevis).
T1 sequence: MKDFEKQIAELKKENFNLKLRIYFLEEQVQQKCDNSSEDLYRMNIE
Put plainly: affinity purification with mass spectrometry.

For experiment [2], the target named is T2, Strep-His-TEV-HaloTag-3C-human γTuNA (human).
T2 sequence: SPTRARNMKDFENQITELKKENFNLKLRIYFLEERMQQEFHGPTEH
The experiment in a line: affinity purification with mass spectrometry.

No constants are given. Whether binding was seen depends on the method and setting. In cells and extracts the contact can be indirect. Here binding means that the protein was enriched with, or labelled near, the bait; the list need not be complete. Tags and fused reporters may be left off the sequences shown.

Consider “cyclin-dependent kinase 1 (CDK1) subunit A (from UniProt P35567 1-302)”, for which the binding entry in experiment [1] and in experiment [2] was “binds” in each case.

Turning to “cyclin-dependent kinase 1 (CDK1) subunit B (from UniProt P24033 1-302)”, the binding entry in experiment [1] and in experiment [2] was “binds” each time.

Turning to nucleoside diphosphate kinase 7 (NME7), the binding result in experiment [1] and in experiment [2] was “binds” each time.

“type II delta chain of the calmodulin-dependent protein kinase (CAMK2D) (from UniProt Q9DG02 1-475)”: the binding entry in experiment [1] and in experiment [2] was “binds” each time.
